Values quoted from earlier work, collected in US11584710B2, “Compounds for treating infections” (HORITZONTS TECNOLOGICS HUNGARY KORLÁTOLT FELELOSSÉGU …, priority 2017, dated 2023).
For at least one compound, name, drawing or mass did not settle the structure.

Tests used:
Set-up in all cases: key: I = intermediate activity; S = susceptibility; R = Resistance
C. glabrata = C. glabrata clinical strain; cited from earlier work
C. albicans = C. albicans clinical strain; cited from earlier work
A. flavus = A. flavus clinical strain; cited from earlier work
C. tropicalis = C. tropicalis clinical strain; cited from earlier work
A. terreus = A. terreus clinical strain; cited from earlier work
A. fumigatus = A. fumigatus clinical strain; cited from earlier work
S. cerevisiae = S. cerevisiae clinical strain; cited from earlier work
C. lusitaniae = C. lusitaniae clinical strain; cited from earlier work
C. parapsilosis = C. parapsilosis clinical strain; cited from earlier work
C. guillermondii = C. guillermondii clinical strain; cited from earlier work
C. Krusei = C. Krusei clinical strain; cited from earlier work
A. niger = A. niger clinical strain; cited from earlier work

## CCC(C)n1ncn(-c2ccc(N3CCN(c4ccc(OCC5COC(Cn6cncn6)(c6ccc(Cl)cc6Cl)O5)cc4)CC3)cc2)c1=O (stereo not drawn) [Itraconazole]
C. glabrata
  Susceptibility of the strain: I
C. albicans
  Susceptibility of the strain: R
A. flavus
  Susceptibility of the strain: I
C. tropicalis
  Susceptibility of the strain: I
A. terreus
  Susceptibility of the strain: I
A. fumigatus
  Susceptibility of the strain: I
S. cerevisiae
  Susceptibility of the strain: S
C. lusitaniae
  Susceptibility of the strain: S
C. parapsilosis
  Susceptibility of the strain: S
C. guillermondii
  Susceptibility of the strain: R
C. Krusei
  Susceptibility of the strain: R
A. niger
  Susceptibility of the strain: I
